Assay results published in the supplement of paper PMC10849652.
The other results are listed elsewhere or left out.

By UniProt entry, the sequences of proteins in these tests, tags left out. Where a name states a change or a piece, a line headed by the entry shows the natural chain unless it says otherwise.
UniProt Q13422: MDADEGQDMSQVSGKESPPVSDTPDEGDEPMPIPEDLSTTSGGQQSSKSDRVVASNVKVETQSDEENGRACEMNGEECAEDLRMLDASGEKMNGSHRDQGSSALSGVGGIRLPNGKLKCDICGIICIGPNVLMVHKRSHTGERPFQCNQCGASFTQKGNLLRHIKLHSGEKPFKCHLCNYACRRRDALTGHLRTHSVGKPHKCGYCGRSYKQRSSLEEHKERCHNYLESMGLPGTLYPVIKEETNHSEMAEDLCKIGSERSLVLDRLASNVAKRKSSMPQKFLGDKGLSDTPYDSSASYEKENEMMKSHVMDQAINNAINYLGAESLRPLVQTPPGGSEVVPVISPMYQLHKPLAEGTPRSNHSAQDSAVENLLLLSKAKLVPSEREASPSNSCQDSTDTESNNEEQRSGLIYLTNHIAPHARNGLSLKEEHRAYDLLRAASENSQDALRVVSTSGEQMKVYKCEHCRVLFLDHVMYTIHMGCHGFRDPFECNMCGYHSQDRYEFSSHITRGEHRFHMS
UniProt Q5TA45, whole entry, looked up: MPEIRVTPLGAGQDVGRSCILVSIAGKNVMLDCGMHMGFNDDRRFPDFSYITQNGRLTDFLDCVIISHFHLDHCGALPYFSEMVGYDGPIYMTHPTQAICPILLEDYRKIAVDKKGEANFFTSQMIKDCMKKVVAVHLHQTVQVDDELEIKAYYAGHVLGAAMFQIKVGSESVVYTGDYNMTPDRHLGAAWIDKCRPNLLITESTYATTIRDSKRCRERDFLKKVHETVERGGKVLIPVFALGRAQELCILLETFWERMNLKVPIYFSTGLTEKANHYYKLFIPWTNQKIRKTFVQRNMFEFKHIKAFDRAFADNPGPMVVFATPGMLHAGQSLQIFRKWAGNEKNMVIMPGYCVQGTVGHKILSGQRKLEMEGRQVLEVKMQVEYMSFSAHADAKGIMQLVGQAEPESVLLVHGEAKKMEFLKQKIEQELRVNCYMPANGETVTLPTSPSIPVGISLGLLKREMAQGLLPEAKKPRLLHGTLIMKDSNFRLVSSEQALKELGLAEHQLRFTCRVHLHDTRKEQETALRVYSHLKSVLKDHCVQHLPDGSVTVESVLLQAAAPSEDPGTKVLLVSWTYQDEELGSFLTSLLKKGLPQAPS
UniProt Q969P0: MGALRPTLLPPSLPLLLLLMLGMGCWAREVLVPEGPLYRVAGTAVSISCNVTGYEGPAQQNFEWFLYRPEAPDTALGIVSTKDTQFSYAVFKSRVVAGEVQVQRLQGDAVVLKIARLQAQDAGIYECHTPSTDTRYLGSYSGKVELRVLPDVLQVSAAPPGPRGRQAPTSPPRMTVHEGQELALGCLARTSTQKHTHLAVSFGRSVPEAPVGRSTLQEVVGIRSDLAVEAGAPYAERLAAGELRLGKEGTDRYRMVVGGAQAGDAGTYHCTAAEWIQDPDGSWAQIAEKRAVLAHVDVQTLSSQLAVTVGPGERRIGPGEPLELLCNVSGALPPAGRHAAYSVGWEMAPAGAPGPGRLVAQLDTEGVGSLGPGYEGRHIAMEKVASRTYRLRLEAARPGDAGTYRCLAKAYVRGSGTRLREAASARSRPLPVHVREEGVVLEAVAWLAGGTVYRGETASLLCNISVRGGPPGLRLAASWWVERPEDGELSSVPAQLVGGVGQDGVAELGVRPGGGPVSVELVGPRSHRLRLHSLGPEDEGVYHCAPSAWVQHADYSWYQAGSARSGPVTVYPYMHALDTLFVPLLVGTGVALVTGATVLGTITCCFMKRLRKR
UniProt P48735: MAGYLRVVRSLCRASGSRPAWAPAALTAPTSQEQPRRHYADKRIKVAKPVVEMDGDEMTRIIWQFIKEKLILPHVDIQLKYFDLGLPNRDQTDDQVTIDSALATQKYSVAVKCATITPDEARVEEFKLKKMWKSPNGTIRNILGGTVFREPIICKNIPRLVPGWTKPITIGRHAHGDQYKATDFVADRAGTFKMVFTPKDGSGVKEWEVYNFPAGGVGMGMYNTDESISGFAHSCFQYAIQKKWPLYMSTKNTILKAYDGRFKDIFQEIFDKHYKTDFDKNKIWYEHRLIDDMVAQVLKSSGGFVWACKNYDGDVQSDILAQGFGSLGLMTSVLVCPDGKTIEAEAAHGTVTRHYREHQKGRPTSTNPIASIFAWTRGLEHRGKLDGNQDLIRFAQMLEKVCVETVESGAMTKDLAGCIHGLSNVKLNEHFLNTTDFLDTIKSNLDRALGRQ
UniProt P01876, whole entry, looked up: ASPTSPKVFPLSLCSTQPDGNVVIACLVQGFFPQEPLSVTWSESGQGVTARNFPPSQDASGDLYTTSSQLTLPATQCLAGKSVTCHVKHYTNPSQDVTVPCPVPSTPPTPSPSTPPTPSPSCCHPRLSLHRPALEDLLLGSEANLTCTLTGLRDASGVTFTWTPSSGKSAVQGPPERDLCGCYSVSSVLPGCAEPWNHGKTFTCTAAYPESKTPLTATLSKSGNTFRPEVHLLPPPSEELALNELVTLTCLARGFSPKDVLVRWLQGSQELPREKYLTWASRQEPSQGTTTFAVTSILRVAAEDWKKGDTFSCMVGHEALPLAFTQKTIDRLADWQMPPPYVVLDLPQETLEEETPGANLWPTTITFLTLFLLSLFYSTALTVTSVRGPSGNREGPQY
UniProt Q9NX55: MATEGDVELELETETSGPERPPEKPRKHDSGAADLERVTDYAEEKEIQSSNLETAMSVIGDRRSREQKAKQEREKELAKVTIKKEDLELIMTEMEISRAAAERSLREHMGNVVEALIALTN
UniProt Q96LB3: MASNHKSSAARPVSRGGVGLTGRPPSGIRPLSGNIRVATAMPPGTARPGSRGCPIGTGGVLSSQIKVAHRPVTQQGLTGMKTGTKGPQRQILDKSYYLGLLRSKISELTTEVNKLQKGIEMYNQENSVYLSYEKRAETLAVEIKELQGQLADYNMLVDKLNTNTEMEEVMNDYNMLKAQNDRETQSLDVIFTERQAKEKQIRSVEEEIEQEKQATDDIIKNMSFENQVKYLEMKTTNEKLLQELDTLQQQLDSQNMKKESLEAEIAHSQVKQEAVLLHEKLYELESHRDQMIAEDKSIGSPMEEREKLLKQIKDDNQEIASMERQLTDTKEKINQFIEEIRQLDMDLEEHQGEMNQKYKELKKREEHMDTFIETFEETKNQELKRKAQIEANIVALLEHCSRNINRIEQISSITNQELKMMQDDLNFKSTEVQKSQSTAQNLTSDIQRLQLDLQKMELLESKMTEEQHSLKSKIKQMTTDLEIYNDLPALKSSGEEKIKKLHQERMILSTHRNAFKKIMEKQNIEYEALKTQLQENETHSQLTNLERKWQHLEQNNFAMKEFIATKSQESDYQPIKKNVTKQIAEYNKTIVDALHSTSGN
UniProt Q9UMF0: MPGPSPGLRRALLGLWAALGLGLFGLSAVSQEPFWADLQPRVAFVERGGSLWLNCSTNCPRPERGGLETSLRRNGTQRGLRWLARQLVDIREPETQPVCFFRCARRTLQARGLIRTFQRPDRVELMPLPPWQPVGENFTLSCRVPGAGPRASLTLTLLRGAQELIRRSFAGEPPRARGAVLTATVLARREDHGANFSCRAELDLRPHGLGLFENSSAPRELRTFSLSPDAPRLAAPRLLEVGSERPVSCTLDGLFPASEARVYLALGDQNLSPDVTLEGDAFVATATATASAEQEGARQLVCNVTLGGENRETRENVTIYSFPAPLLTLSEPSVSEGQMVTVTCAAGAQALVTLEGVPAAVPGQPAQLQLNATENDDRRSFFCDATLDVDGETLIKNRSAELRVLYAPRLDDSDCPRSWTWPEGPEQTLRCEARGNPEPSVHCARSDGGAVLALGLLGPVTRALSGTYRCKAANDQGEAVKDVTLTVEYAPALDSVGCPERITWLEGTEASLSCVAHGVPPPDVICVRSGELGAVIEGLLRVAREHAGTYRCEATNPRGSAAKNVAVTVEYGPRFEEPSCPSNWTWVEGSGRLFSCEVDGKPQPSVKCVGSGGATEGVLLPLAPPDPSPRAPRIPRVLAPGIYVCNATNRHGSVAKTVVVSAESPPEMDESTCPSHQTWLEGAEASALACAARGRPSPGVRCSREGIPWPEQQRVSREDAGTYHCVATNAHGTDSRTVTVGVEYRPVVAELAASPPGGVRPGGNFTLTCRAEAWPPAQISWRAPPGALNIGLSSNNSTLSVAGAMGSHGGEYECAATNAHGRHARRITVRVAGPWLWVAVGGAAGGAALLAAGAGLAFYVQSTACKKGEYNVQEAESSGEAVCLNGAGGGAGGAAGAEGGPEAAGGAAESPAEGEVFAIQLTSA
UniProt Q96CB8, whole entry, looked up: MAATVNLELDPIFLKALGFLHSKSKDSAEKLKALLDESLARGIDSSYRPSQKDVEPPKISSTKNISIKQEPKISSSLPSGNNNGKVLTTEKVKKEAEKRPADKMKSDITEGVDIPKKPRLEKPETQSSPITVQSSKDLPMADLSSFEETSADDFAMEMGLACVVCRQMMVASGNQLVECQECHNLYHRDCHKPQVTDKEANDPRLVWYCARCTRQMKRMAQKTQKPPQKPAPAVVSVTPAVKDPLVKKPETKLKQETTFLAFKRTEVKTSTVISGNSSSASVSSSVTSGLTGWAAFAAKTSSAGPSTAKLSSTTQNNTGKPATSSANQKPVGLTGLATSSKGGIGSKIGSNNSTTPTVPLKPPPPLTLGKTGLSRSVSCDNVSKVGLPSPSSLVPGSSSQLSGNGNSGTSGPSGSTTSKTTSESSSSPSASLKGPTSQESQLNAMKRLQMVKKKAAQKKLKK
UniProt C9J406: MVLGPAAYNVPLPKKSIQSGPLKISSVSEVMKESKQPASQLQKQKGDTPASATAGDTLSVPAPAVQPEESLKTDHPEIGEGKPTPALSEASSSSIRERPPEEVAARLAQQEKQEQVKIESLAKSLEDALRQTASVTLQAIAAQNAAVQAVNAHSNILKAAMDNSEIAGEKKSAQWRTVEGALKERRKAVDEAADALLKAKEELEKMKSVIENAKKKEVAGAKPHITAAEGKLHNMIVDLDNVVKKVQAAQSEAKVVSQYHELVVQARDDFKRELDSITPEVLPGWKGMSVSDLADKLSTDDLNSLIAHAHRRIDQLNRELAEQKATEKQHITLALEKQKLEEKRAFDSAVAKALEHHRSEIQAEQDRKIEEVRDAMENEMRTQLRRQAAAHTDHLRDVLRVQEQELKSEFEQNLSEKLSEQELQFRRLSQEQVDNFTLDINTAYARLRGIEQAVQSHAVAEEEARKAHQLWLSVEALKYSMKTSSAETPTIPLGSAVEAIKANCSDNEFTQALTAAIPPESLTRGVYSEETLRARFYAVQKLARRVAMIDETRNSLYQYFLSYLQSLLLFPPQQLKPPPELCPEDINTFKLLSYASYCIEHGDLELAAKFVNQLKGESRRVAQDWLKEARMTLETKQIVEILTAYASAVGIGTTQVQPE
UniProt Q12906, whole entry, looked up: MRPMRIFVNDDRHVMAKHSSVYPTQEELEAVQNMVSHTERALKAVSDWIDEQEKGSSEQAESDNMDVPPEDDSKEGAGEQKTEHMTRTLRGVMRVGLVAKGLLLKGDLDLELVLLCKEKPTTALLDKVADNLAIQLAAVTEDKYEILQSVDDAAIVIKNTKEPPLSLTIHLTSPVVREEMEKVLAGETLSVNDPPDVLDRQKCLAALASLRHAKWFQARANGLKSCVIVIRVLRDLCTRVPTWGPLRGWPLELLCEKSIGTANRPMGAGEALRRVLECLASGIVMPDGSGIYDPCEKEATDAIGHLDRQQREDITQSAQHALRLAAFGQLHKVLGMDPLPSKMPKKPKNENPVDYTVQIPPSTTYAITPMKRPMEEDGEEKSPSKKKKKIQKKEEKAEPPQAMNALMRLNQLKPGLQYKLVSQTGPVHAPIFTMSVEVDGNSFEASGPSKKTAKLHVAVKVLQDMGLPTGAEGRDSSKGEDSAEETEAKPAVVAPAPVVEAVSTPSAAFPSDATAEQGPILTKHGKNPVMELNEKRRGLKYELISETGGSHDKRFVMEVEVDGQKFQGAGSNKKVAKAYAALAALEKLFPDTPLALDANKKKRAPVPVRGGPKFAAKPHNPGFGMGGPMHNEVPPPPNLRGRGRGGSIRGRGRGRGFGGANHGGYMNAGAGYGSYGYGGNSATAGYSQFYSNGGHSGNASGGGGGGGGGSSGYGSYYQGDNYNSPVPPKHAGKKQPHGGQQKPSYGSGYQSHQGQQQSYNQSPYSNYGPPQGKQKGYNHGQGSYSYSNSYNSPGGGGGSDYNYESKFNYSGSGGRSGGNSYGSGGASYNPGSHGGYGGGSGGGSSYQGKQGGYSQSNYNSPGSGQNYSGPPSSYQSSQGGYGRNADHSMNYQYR
UniProt P29218: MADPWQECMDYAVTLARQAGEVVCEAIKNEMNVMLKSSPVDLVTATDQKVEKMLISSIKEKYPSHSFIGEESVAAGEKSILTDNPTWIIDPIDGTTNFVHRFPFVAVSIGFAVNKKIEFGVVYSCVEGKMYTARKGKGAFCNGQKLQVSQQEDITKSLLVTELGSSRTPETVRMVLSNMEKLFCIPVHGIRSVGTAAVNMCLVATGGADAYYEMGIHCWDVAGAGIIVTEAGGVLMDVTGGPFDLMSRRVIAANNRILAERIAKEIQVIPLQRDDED

How the values were obtained:
Test in all cases: log2 fold change, soluble protein after heating vs DMSO (PISA); higher = thermal stabilisation; K562 lysate, 10 uM; active = over 0.2 and 3.5 SD of the protein, either way, in both replicates (recomputed)
erlotinib = compound: C#Cc1cccc(Nc2ncnc3cc(OCCOC)c(OCCOC)cc23)c1 [erlotinib]
Method in brief: (§1)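 Following dounce homogenisation of K562 pellets in PBS pH 7.4 with 1 mM MgCl2, crude extract at 1 mg/mL protein was incubated for 30 min with 10 μM compound. Aliquots were then heated for 3 min over 48°C-58°C and pooled, NP-40 was added to 0.5% at 4°C, and soluble protein was recovered as the supernatant at 21,000xg for 90 min. Channel-sum-equalised TMTpro 16plex LC-MS/MS quantified this protein. Each value, from duplicates, is a log-two fold change in thermal stability relative to solvent controls.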

[1] = compound: C/C(=N\NC(=O)C1=CC(=CC=C1)S(=O)(=O)N2CCOCC2)/C3=C(C=CC(=C3)Cl)O
Method in brief: as §1

[2] = compound: C1=CC(=CC=C1C2=NC3=C(N2)C=C(C=C3)C(=O)N)OC4=CC=C(C=C4)Cl
Method in brief: as §1

[3] = compound: C1=CC2=C(C=CC(=C2)/C=C\3/C(=O)NC(=NCC4=CC=CS4)S3)N=C1
Method in brief: as §1

[4] = compound: C1=CC2=NC=CN=C2C=C1/C=C/3\C(=O)NC(=O)S3
Method in brief: as §1

[5] = compound: C1=CC=C(C=C1)C2=NC(=C(N2)C3=CC=NC=C3)C4=CC(=C(C=C4)Cl)O
Method in brief: as §1

[6] = compound: C1=CC=C2C(=C1)C3=NNC4=CC=CC(=C43)C2=O
Method in brief: as §1

[7] = compound: C1CCN(C1)C(=O)NC2=CC=CC(=C2)NC3=NC=C(C(=N3)NCCC4=CN=CN4)Br
Method in brief: as §1

[8] = compound: C1CN(CCC1(CC2=CC=C(C=C2)Cl)N)C3=NC=NC4=C3C=CN4
Method in brief: as §1

IRAK-1-4 Inhibitor I = compound: C1COCCN1CCN2C3=CC=CC=C3N=C2NC(=O)C4=CC(=CC=C4)[N+](=O)[O-] [IRAK-1-4 Inhibitor I]
Method in brief: as §1

Measured: log2 fold change

IKZF1 (UniProt Q13422)
inactive: erlotinib -0.06 | [1] 0.084 | [2] -0.018 | [3] -0.093 | [4] 0.021 | [5] 0.03 | [6] 0.112 | [7] 0.045 | [8] -0.031 | IRAK-1-4 Inhibitor I 0.028

HSPE1 (UniProt P61604)
inactive: erlotinib -0.046 | [1] -0.02 | [2] -0.028 | [3] -0.024 | [4] -0.031 | [5] -0.022 | [6] 0.042 | [7] 0.026 | [8] 0.015 | IRAK-1-4 Inhibitor I -0.009

IBTK (UniProt Q9P2D0)
inactive: erlotinib -0.042 | [1] 0.055 | [2] 0.013 | [3] 0.042 | [4] -0.043 | [5] -0.038 | [6] -0.072 | [7] 0.012 | [8] 0.004 | IRAK-1-4 Inhibitor I -0.024

IGF2R (UniProt P11717)
inactive: erlotinib -0.026 | [1] -0.009 | [2] 0.022 | [3] 0.019 | [4] -0.025 | [5] 0.021 | [6] -0.007 | [7] 0.003 | [8] -0.002 | IRAK-1-4 Inhibitor I 0.011

INTS11 (UniProt Q5TA45)
inactive: erlotinib -0.01 | [1] 0.013 | [2] 0.002 | [3] 0.026 | [4] 0.021 | [5] -0.016 | [6] -0.028 | [7] 0.01 | [8] 0.051 | IRAK-1-4 Inhibitor I 0.03

IGSF8 (UniProt Q969P0)
inactive: erlotinib -0.008 | [1] -0.023 | [2] 0.043 | [3] 0.011 | [4] -0.042 | [5] -0.003 | [6] 0.004 | [7] -0.018 | [8] -0.046 | IRAK-1-4 Inhibitor I 0.107

IDH2 (UniProt P48735)
inactive: erlotinib 0.016 | [1] 0.013 | [2] -0.032 | [3] 0.017 | [4] 0.029 | [5] 0.062 | [6] -0.08 | [7] -0.017 | [8] 0.027 | IRAK-1-4 Inhibitor I 0.031

IGHA1 (UniProt P01876)
inactive: erlotinib -0.293 | [1] 1.27 | [2] -0.219 | [3] -0.029 | [4] 0.232 | [5] -0.071 | [6] -0.168 | [7] 0.173 | [8] -0.595 | IRAK-1-4 Inhibitor I -0.64

HYPK (UniProt Q9NX55)
inactive: erlotinib 0.004 | [1] 0.035 | [2] 0.016 | [3] 0 | [4] -0.01 | [5] 0.029 | [6] -0.004 | [7] 0.028 | [8] 0.072 | IRAK-1-4 Inhibitor I 0.032

IFT74 (UniProt Q96LB3)
inactive: erlotinib 0.038 | [1] 0.026 | [2] 0.107 | [3] -0.067 | [4] -0.037 | [5] -0.014 | [6] -0.032 | [7] -0.013 | [8] 0.027 | IRAK-1-4 Inhibitor I 0.086

IKBIP (UniProt Q70UQ0)
inactive: erlotinib -0.004 | [1] 0.077 | [2] 0.002 | [3] -0.012 | [4] -0.028 | [5] -0.029 | [6] 0.005 | [7] -0.001 | [8] 0.006 | IRAK-1-4 Inhibitor I 0.037

ICAM5 (UniProt Q9UMF0)
inactive: erlotinib 0.043 | [1] -0.008 | [2] 0.071 | [3] -0.088 | [4] 0.022 | [5] 0.06 | [6] 0.062 | [7] -0.032 | [8] 0.049 | IRAK-1-4 Inhibitor I 0.067

INPP5K (UniProt Q9BT40)
inactive: erlotinib -0.065 | [1] 0.051 | [2] 0.054 | [3] 0.15 | [4] -0.064 | [5] -0.175 | [6] -0.221 | [7] -0.01 | [8] 0.104 | IRAK-1-4 Inhibitor I -0.037

INTS12 (UniProt Q96CB8)
inactive: erlotinib 0.059 | [1] 0 | [2] 0.065 | [3] -0.078 | [4] -0.03 | [5] -0.042 | [6] -0.051 | [7] -0.023 | [8] 0.012 | IRAK-1-4 Inhibitor I -0.024

ILVBL (UniProt A1L0T0)
inactive: erlotinib 0 | [1] -0.054 | [2] 0.112 | [3] -0.03 | [4] -0.041 | [5] -0.013 | [6] -0.022 | [7] -0.035 | [8] 0.062 | IRAK-1-4 Inhibitor I 0.098

IMMT (UniProt C9J406)
inactive: erlotinib 0.077 | [1] 0.041 | [2] -0.028 | [3] 0.001 | [4] 0.043 | [5] 0.028 | [6] -0.032 | [7] -0.222 | [8] 0.325 | IRAK-1-4 Inhibitor I -0.016

IK (UniProt Q13123)
inactive: erlotinib -0.037 | [1] 0.004 | [2] 0.021 | [3] -0.001 | [4] 0.026 | [5] 0.052 | [6] 0.017 | [7] -0.014 | [8] 0.01 | IRAK-1-4 Inhibitor I 0.027

IFT52 (UniProt Q9Y366)
inactive: erlotinib -0.109 | [2] 0.359

IDH3A (UniProt P50213)
inactive: erlotinib -0.003 | [1] -0.012 | [2] 0.018 | [3] -0.013 | [4] 0.011 | [5] -0.006 | [6] 0.046 | [7] -0.011 | [8] -0.028 | IRAK-1-4 Inhibitor I 0.007

INO80B (UniProt Q9C086)
inactive: erlotinib 0.093 | [2] -0.064

ILF3 (UniProt Q12906)
inactive: erlotinib -0.007 | [1] -0.264 | [2] 0.019 | [3] 0.091 | [4] 0.06 | [6] 0.123 | [7] 0.011 | [8] 0.143

IMPA1 isoform 3 (UniProt P29218)
inactive: erlotinib -0.025 | [1] 0.017 | [2] 0.01 | [3] -0.01 | [4] 0.012 | [5] 0.019 | [6] 0.012 | [7] 0.006 | [8] 0.011 | IRAK-1-4 Inhibitor I 0.017

Retrieved one by one from the entries so far, two records:
INO80B (UniProt Q9C086)
inactive: erlotinib 0.093 | [2] -0.064

IMPA1 isoform 3 (UniProt P29218)
inactive: erlotinib -0.025 | [1] 0.017 | [2] 0.01 | [3] -0.01 | [4] 0.012 | [5] 0.019 | [6] 0.012 | [7] 0.006 | [8] 0.011 | IRAK-1-4 Inhibitor I 0.017

(continued)

INPPL1 (UniProt O15357)
inactive: erlotinib -0.01 | [1] -0.034 | [2] -0.018 | [3] -0.052 | [4] -0.006 | [5] -0.02 | [6] -0.051 | [7] -0.021 | [8] 0.003 | IRAK-1-4 Inhibitor I -0.034

IMMP1L (UniProt Q96LU5)
inactive: erlotinib -0.019 | [2] 0.006 | [4] -0.096 | [5] -0.007 | [7] 0.044 | [8] -0.06 | IRAK-1-4 Inhibitor I -0.008

IGKC (UniProt P01834)
inactive: erlotinib -0.017 | [2] -0.136 | [4] 0.321 | [5] 0.43 | [7] -0.095 | [8] 0.188 | IRAK-1-4 Inhibitor I -0.174
